Test results taken from article PMC6771824.
Results are given in words; binding and its absence hold for the method and conditions named. Binding can be weak; no strength is given.

Molecular target: T1, PCGF2 (human) (UniProt P35227)
T1 sequence: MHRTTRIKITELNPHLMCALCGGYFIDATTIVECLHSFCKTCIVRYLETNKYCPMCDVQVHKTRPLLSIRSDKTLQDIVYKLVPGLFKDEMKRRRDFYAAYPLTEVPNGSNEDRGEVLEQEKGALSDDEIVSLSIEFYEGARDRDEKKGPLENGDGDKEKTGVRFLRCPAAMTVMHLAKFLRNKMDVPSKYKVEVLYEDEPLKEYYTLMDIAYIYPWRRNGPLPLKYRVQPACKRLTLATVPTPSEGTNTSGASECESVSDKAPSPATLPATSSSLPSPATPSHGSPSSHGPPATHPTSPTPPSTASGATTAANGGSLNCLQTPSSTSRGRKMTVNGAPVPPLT
Assay: cross-linking; about 50 ug of purified ΔPRC1.2 (four subunits) cross-linked with H12/D12 DSS, 37 °C, 30 min; lysine-lysine links, Cα-Cα maximum distance 27 Å; LC-MS/MS, xQuest/xProphet, FDR 0.05; both purified

Substance: L307R-ΔPHC2 (human) (domain or fragment)
- binding: binds
